At least one structure is not confirmed: it was looked up by name or label, or the drawing left a doubt.
Key:
[1] = target: T. aurantiacus GH61A polypeptide (Thermoascus aurantiacus, UniProt G3XAP7, N13Y); experiment: PACE analysis of products from PASC incubated with organic compound, Ca(II) and T. aurantiacus GH61A polypeptide at various pH; format: biochemical; details: for products detected on PACE: PASC, Ca(II), GH61A polypeptide
Experimental: Polysaccharide-analysis-using-carbohydrate-gel-electrophoresis (PACE) was applied to analyze the products from incubation of cellulose in the presence of Ca(II) and ascorbate, cysteine or gallic acid and the T. aurantiacus GH61A polypeptide.
The mixture was filtered, and the filtrate (90 μl) was subjected to PACE analysis as described below. Buffers were varied to obtain the following pH values: formic acid at pH 4, acetic acid at pH 5, triethylammonium acetate at pH 6-7, and ammonium acetate at pH 8-9.
Carbohydrate products from the reaction were derivatized with 8-aminonaphthalene-1,3,6-trisulfonic acid (ANTS) fluorophore, applied to a polyacrylamide gel, and subjected to PACE, according to protocols adapted from (Goubet et al, 2002, Analytical Biochemistry 300: 53-68). Briefly, the derivatization was conducted by first drying 45 μl of the reaction products in a Jouan RC1010 vacuum concentrator system (Jouan Inc., Vallensbaekvej, Denmark) at 40° C. for about 3 hours, then mixing the dried products with 5 μl of 0.2 M ANTS in 15% acetic acid and 5 μl of 1 M NaBH3CN in DMSO, incubation at 37° C. in a thermomixer overnight followed by exposure to air for about 30 minutes, and then drying in a vacuum concentrator at 40° C. for about 4 hours. The ANTS-labeled samples were mixed with 20 μl of 6 M urea prior to PACE analysis.
Gels were cast according to Goubet et al., 2002, supra. The electrophoresis was performed with an SE 660 vertical electrophoresis system (GE Healthcare, Park Alle, Denmark) in a Tris/Borate buffer system at 200 V for 30 minutes and then at 1000 V for almost 2 hours at +5° C., followed by visualization using a UVP BioImaging System (UVP, LLC, Upland, Calif., USA) with UV transilluminator (Wavelength 365 nm UV-A) and EpiChem Darkroom combined with a camera system using a SYBR Gold™ emission filter (Syngene, Cambridge, United Kingdom).
Densitometry was performed by visual definition of a minimal space containing the band of interest, and integration of total pixel intensity within the space using a series of MatLab® scripts (The Mathworks, Natick, Mass., USA).

Amino acid sequences for entries named in this document (tags omitted).
UniProt G3XAP7, whole entry N13Y: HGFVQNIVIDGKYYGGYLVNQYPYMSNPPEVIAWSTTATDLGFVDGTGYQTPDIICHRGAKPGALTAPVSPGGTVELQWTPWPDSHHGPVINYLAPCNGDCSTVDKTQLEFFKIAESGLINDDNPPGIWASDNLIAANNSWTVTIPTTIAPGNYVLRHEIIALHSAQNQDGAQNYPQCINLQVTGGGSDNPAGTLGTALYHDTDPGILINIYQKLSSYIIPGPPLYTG

[2] = cited from earlier work

SMILES	products detected on PACE ([1]; 50° C., pH at or above the pKa of the compound)	products detected on PACE ([1]; pH value below the pKa)	PACE band intensity as a function of pH (densitometry) ([1]; cellodextrin bands of apparent DP 4, 8 and 9)	PACE product bands at low pH ([1]; lowest pH examined, 3.9)	shape of the increase of PACE band intensity with pH ([1]; pH range about 3.9 to 5.6)	~pKa1 [2]	~pKa2 [2]
O=C1O[C@H]([C@@H](O)CO)C(O)=C1O [ascorbate]	products similar to cellodextrins having 1-7 glucosyl units were detected	no product was detected	increased in intensity with increasing pH	product bands were apparent	increase linearly with pH	–	–
O=C(O)/C=C(\CC(=O)O)C(=O)O [trans-aconitic acid]	–	–	–	–	–	~2.8	~4.46

Reference: patent US8846351B2, “Compositions for enhancing hydroysis of cellulosic material by cellulolytic enzyme compositions” (Novozymes, Inc., priority 2010, dated 2014)
